The supplement of paper PMC5770031
Some of the results follow. Single values are uncertain here, since repeats match poorly.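 ATM8/balancer (normal ATM) heterozygous flies were crossed on treated food; parents laid eggs 5–6 days, offspring developed ~12 days, so parents and larvae ingested compound. Readout: fraction of emerged adults homozygous for ATM8 versus 2% DMSO controls. Compounds were neutral at 10–20% homozygotes, harmful below 10%, helpful above 20%.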

Tested on: Drosophila melanogaster ATM8 (temperature-sensitive ATM allele)
Experiment: fraction of eclosed F1 progeny that are homozygous ATM8 (rescue of developmental lethality); higher = more rescue of ATM8 developmental lethality; extreme values may be limits of the assay
Conditions: compound concentration applied to food 0.2 mM; 21 °C

Compared with `CC(=O)Nc1c(I)c(NC(C)=O)c(I)c(C(=O)O)c1I`, `CC(=O)Oc1cccc2c1C(=O)c1c(OC(C)=O)cc(C(=O)O)cc1C2=O` is higher in “fraction of eclosed F1 progeny that are homozygous ATM8” value (from here on “fraction”): 0.0143 for the first, 0.244 for the second.

Going from `CCc1cc(C(N)=S)ccn1` to `CCC(N)C(O)c1ccc(O)c(O)c1` (stereo not given), the “fraction” value rises from 0.176 to 0.273.

Going from `Cc1ccc(C(=O)Nc2ccc(S(=O)(=O)O)c3cc(S(=O)(=O)O)cc(S(=O)(=O)O)c23)cc1NC(=O)c1cccc(NC(=O)Nc2cccc(C(=O)Nc3cc(C(=O)Nc4ccc(S(=O)(=O)O)c5cc(S(=O)(=O)O)cc(S(=O)(=O)O)c45)ccc3C)c2)c1` to `CC(=O)Nc1ccc(S(=O)(=O)Nc2ccc([N+](=O)[O-])cc2)cc1`, the “fraction” value falls from 0.125 to 0.0978.

Going from `O=C1NC(=O)C(=O)C(=O)N1` to `CC1NC(=O)NC1=O` (stereo not given), the “fraction” value falls from 0.136 to 0.119.

Going from `C[C@H]1[C@H](NC(=O)/C(=N\OC(C)(C)C(=O)O)c2csc(N)n2)C(=O)N1S(=O)(=O)O` to `CC(C)(O/N=C(\C(=O)N[C@@H]1C(=O)N2C(C(=O)[O-])=C(C[n+]3ccccc3)CS[C@H]12)c1csc(N)n1)C(=O)O`, the “fraction” value falls from 0.178 to 0.0909.

Going from `CC(C)(C)NCC(O)c1ccccc1Cl` (stereo not given) to `CC(C)(C)NC[C@H](O)COc1nsnc1N1CCOCC1`, the “fraction” value falls from 0.345 to 0.162.

Going from `CNCCC=C1c2ccccc2CCc2ccccc21` to `O=c1c(-c2ccccc2)coc2ccccc12`, the “fraction” value rises from 0.129 to 0.243.

Compared with `OC[C@H]1O[C@@H](OCCc2ccc(O)cc2)[C@H](O)[C@@H](O)[C@@H]1O`, `OC[C@H]1O[C@@H](Oc2ccc(O)cc2)[C@H](O)[C@@H](O)[C@@H]1O` is lower in “fraction” value: 0.213 for the first, 0.172 for the second.

Compared with `Cc1ccc2c(c1)CC[C@H]1CC(=O)CC[C@]21C`, `C=C1C[C@H]2[C@@H]3C=C(C)C4=CC(=O)CC[C@]4(C)[C@H]3CC[C@]2(C)[C@@]1(OC(C)=O)C(C)=O` is lower in “fraction” value: 0.0303 for the first, 0.0233 for the second.

First: CCc1c2c(nc3ccc(OC(=O)N4CCC(N5CCCCC5)CC4)cc13)-c1cc3c(c(=O)n1C2)COC(=O)[C@]3(O)CC
Second: COc1cc2nc(N3CCN(C(=O)c4ccco4)CC3)nc(N)c2cc1OC
The “fraction” value of the first is lower: 0.0395 for the first, 0.318 for the second.

First: C[C@@H](O)[C@H](N)C(=O)O
Second: NC(C(=O)O)C(O)C(=O)O (stereo not drawn) [d,l-threo-3-HYDROXYASPARTIC ACID]
The “fraction” value of the first is lower: 0 for the first, 0.2 for the second.

Compared with `CCC(C)(C)O`, `CCCCCC(C)N` (stereo not given) is lower in “fraction” value: 0.254 for the first, 0.0488 for the second.

Going from `Cc1ccc(/C(=C\CN2CCCC2)c2ccccn2)cc1` to `OC(CCN1CCCCC1)(c1ccccc1)C1CC2C=CC1C2` (stereo not given), the “fraction” value falls from 0.171 to 0.0408.

Going from `Oc1nc2cc(Cl)c(Cl)cc2nc1O` to `Oc1cc(Cl)ccc1Oc1ccc(Cl)cc1Cl`, the “fraction” value rises from 0 to 0.0455.

Going from `C=CC[C@@H]1/C=C(\C)C[C@H](C)C[C@H](OC)[C@H]2O[C@@](O)(C(=O)C(=O)N3CCCC[C@H]3C(=O)O[C@H](/C(C)=C/[C@@H]3CC[C@@H](O)[C@H](OC)C3)[C@H](C)[C@@H](O)CC1=O)[C@H](C)C[C@@H]2OC` to `CC(=O)O[C@H]1C[C@H](O[C@H]2[C@@H](O)C[C@H](O[C@H]3[C@@H](O)C[C@H](O[C@H]4CC[C@@]5(C)[C@H](CC[C@@H]6[C@@H]5C[C@@H](O)[C@]5(C)[C@@H](C7=CC(=O)OC7)CC[C@]65O)C4)O[C@@H]3C)O[C@@H]2C)O[C@H](C)[C@H]1O[C@@H]1O[C@H](CO)[C@@H](O)[C@H](O)[C@H]1O`, the “fraction” value rises from 0 to 0.163.

Compared with `CC(=O)OC1CCC23CC1(C)CCC2C(C)(C)CC3OC(C)=O` (stereo not given), `CC(=O)O[C@H]1CC[C@]2(C)C3=CC(=O)[C@@]4(C)C(C[C@@H]5OC6(OCC(C)CC6Br)[C@@H](C)[C@@H]54)C3CC[C@H]2C1` (stereo partly drawn) [3beta-ACETOXY-23-BROMO-ISOALLOSPIROST-9 (11)-ENE-12-ONE] is higher in “fraction” value: 0.0952 for the first, 0.13 for the second.

First: O=C([O-])c1ccccc1O.[Na+]
Second: O=C(O)c1cc2ccccc2[nH]1
The “fraction” value of the first is higher: 0.178 for the first, 0.167 for the second.

Going from `COc1ccc2[nH]cc(CCNC(C)=O)c2c1` to `COc1ccc2cc(CCC(C)=O)ccc2c1`, the “fraction” value rises from 0.1 to 0.123.

Compared with `NC[C@H]1O[C@H](O[C@H]2[C@H](O[C@@H]3O[C@H](CO)[C@@H](O)[C@H]3O)[C@@H](O)[C@H](N)C[C@@H]2N)[C@H](N)[C@@H](O)[C@@H]1O`, `N[C@H]1C(O)O[C@H](CO)[C@@H](O)[C@@H]1O` (stereo not given in full) is higher in “fraction” value: 0.0976 for the first, 0.152 for the second.

First: CC(C)N1CCN(c2ccc(OCC3COC(Cn4cncn4)(c4ccc(Cl)cc4Cl)O3)cc2)CC1 (stereo not given)
Second: CN1CCCC(n2nc(Cc3ccc(Cl)cc3)c3ccccc3c2=O)CC1 (stereo not given)
The “fraction” value of the first is lower: 0.106 for the first, 0.282 for the second.

First: COc1ccc(CCN2CCC(Nc3nc4ccccc4n3Cc3ccc(F)cc3)CC2)cc1
Second: O=C(CCCN1CC=C(n2c(=O)[nH]c3ccccc32)CC1)c1ccc(F)cc1
The “fraction” value of the first is higher: 0.25 for the first, 0.115 for the second.

Going from `CCN(Cc1ccncc1)C(=O)C(CO)c1ccccc1` (stereo not given) to `C#CCN(C)Cc1ccccc1`, the “fraction” value falls from 0.139 to 0.119.

Going from `Cc1ncc([N+](=O)[O-])n1CCO` to `NC(=O)N/N=C/c1ccc([N+](=O)[O-])o1`, the “fraction” value rises from 0.171 to 0.286.

Going from `CC(=O)O[C@H]1CC[C@@]2(C)[C@H](CC[C@@H]3[C@@H]2CC[C@]2(C)[C@@H]4[C@H](C[C@@H]32)O[C@]2(CC[C@@H](C)CO2)[C@H]4C)C1` to `CC(C)CCC[C@@H](C)[C@H]1CC[C@H]2[C@@H]3CC[C@H]4C[C@H](O)CC[C@]4(C)[C@H]3CC[C@]12C`, the “fraction” value falls from 0.139 to 0.116.

Compared with `C[C@H]1[C@@H](O)O[C@@H]2O[C@@]3(C)CC[C@H]4[C@H](C)CC[C@@H]1[C@@]24OO3`, `C[C@]12CC[C@H]3[C@@H](CC[C@@]45O[C@@H]4C(O)=C(C#N)C[C@]35C)[C@@H]1CC[C@@H]2O` is higher in “fraction” value: 0.122 for the first, 0.218 for the second.

Compared with `CC1=C2[C@H]3OC(=O)[C@@H](C)[C@@H]3CC[C@@]2(C)C=CC1=O`, `CC1(C)C(=O)CC[C@@]2(C)C1C[C@@H](O)[C@@]1(C)C3=CC(=O)O[C@@H](c4ccoc4)[C@]3(C)CCC21` (stereo not given in full) is lower in “fraction” value: 0.147 for the first, 0.0625 for the second.

Going from `CCn1cc(C(=O)O)c(=O)c2ccc(C)nc21` to `CCn1cc(C(=O)O)c(=O)c2cnc(N3CCNCC3)nc21`, the “fraction” value falls from 0.0455 to 0.0286.

Compared with `O=C(O)CCC(=O)OC[C@@H](NC(=O)C(Cl)Cl)[C@H](O)c1ccc([N+](=O)[O-])cc1`, `N=C(N)NCCC[C@@H](NC(=O)[C@@H](N)Cc1ccc(O)cc1)C(=O)O` is higher in “fraction” value: 0.0526 for the first, 0.113 for the second.

Going from `CCN(CC)CCNC(=O)c1cc(S(C)(=O)=O)ccc1OC` to `COc1ccc(NS(=O)(=O)c2ccc(N)cc2)nn1`, the “fraction” value rises from 0.104 to 0.2.

Compared with `Oc1c(I)cc(I)c2cccnc12`, `O=c1c(O)cccc2cc(O)c(O)c(O)c12` is lower in “fraction” value: 0.268 for the first, 0.0847 for the second.

Compared with `NCCS(=O)(=O)O`, `Nc1ccc(S(=O)(=O)c2ccc(N)cc2)cc1` is higher in “fraction” value: 0 for the first, 0.0312 for the second.

First: CC(=O)N[C@@H](CC(=O)N[C@@H](CCC(=O)O)C(=O)O)C(=O)O
Second: NCCCC[C@H](N[C@@H](CCc1ccccc1)C(=O)O)C(=O)N1CCC[C@H]1C(=O)O
The “fraction” value of the first is lower: 0.0513 for the first, 0.14 for the second.

Going from `Cc1ccc(S(=O)(=O)NC(=O)NN2CC3CCCC3C2)cc1` (stereo not given) to `O=C(O[C@H]1CN2CCC1CC2)N1CCc2ccccc2[C@@H]1c1ccccc1`, the “fraction” value falls from 0.143 to 0.

Going from `O=c1c(O)c(-c2cc(O)c(O)c(O)c2)oc2cc(O)cc(O)c12` to `COc1c(-c2ccccc2)oc2cc(O)cc(O)c2c1=O`, the “fraction” value rises from 0.18 to 0.256.

First: Nc1nc(=O)c2[nH]c(=O)cnc2[nH]1
Second: CO/N=C(\C(=O)N[C@@H]1C(=O)N2C(C(=O)O)=C(CSc3nc(=O)c(O)nn3C)CS[C@H]12)c1csc(N)n1
The “fraction” value of the first is lower: 0.0494 for the first, 0.0625 for the second.

Compared with `N=C(N)NC(=N)N1CCOCC1`, `N=C(N)NCC1COC2(CCCCC2)O1` (stereo not given) is lower in “fraction” value: 0.0877 for the first, 0.0286 for the second.

First: Cc1ncc(CSSCc2cnc(C)c(O)c2CO)c(CO)c1O
Second: COC1=C(OC)C(=O)C(CCCCCCCCCCO)=C(C)C1=O
The “fraction” value of the first is lower: 0.128 for the first, 0.133 for the second.

Compared with `CC1(C)OC(=O)NC1=O`, `CC1=CC(=O)NS(=O)(=O)O1` is higher in “fraction” value: 0.0857 for the first, 0.186 for the second.

Going from `Nc1ccc(C(=O)NCC(=O)O)cc1` to `O=C(CNC(=O)c1ccc(Cl)cc1)NO`, the “fraction” value falls from 0.172 to 0.0698.

Going from `Cn1nnnc1SCC1=C(C(=O)O)N2C(=O)[C@@H](NC(=O)[C@H](O)c3ccccc3)[C@H]2SC1` to `CCN1CCN(C(=O)N[C@@H](C(=O)N[C@@H]2C(=O)N3[C@@H]2SC(C)(C)[C@@H]3C(=O)O)c2ccccc2)C(=O)C1=O`, the “fraction” value falls from 0.149 to 0.119.

First: CCC[C@H](N[C@@H](C)C(=O)N1[C@H](C(=O)O)C[C@@H]2CCCC[C@@H]21)C(=O)OCC
Second: CCOC(=O)OC(C)OC(=O)[C@@H]1N2C(=O)[C@@H](NC(=O)[C@H](N)c3ccccc3)[C@H]2SC1(C)C (stereo not given in full)
The “fraction” value of the first is higher: 0.225 for the first, 0.105 for the second.

Going from `OCCN1CCN(CCCN2c3ccccc3Sc3ccc(Cl)cc32)CC1` to `CN1CCCCC1CCN1c2ccccc2Sc2ccc([S+](C)[O-])cc21` (stereo not given), the “fraction” value falls from 0.333 to 0.182.

Compared with `CN(C)CCc1c[nH]c2ccc(Cn3cncn3)cc12`, `CCOC(=O)[C@H](CCc1ccccc1)N[C@H]1CCc2ccccc2N(CC(=O)O)C1=O` is higher in “fraction” value: 0.226 for the first, 0.326 for the second.

Compared with `CC1(C)C(C=C(Cl)Cl)C1C(=O)OC(C#N)c1cccc(Oc2ccccc2)c1` (stereo not given), `CC(=O)Oc1cccc(O)c1` is lower in “fraction” value: 0.182 for the first, 0.1 for the second.

Going from `CO[C@@H]1[C@@H](OC(N)=O)[C@@H](O)[C@H](Oc2ccc3c(O)c(NC(=O)c4ccc(O)c(CC=C(C)C)c4)c(=O)oc3c2C)OC1(C)C` to `COc1cc(-c2coc3cc(O)c(OC)c(O)c3c2=O)cc(O)c1OC`, the “fraction” value rises from 0.176 to 0.188.

First: O=C(NCO)c1cccnc1
Second: O=C(N/N=C/c1ccc([N+](=O)[O-])o1)c1cc([N+](=O)[O-])cc([N+](=O)[O-])c1O
The “fraction” value of the first is higher: 0.143 for the first, 0.0333 for the second.

First: CCCC(=O)Nc1ncnc2c1ncn2[C@@H]1O[C@@H]2COP(=O)(O)O[C@H]2[C@H]1OC(=O)CCC
Second: C[C@]12CCC(=O)C=C1CC[C@@H]1[C@@H]2[C@@H](O)C[C@@]2(C)[C@H]1CC[C@]2(O)C(=O)COC(=O)CCC(=O)O
The “fraction” value of the first is higher: 0.26 for the first, 0.0851 for the second.

In the case of `NC1(C(=O)O)CCCC1`, the “fraction” value was 0.0714.
